Measurements from patent US20250000944A1, “USE OF RECOMBINANT CALRETICULIN IN HAIR GROWTH, HAIR BREEDING, HAIR PROTECTION OR ANTI-HAIR LOSS AND RELATED PRODUCT” (BEIJING YITUBAIHUI BIOTECH CO., LTD, priority 2021, published 2025).
At least one compound was matched to its structure with a doubt left.

Tested on: androgenic alopecia model
Assay: First experiment: testosterone-induced androgenic alopecia model, hair observed by dermatoscope and scanning electron microscopy
Type: in vivo, C57BL/6 male mice
Conditions: 21 days; proteins 0.21 mg/ml injected on the back once a day; minoxidil 5% external; finasteride 13 μg/mL
Experimental: Experimental animals: C57BL/6 male mice, 6-7 weeks old, weighing (20±2) g, were provided by Beijing Vital River Laboratory Animal Technology Co. Ltd., with the animal license number of SCXK (Beijing) 2021-0006. They were kept in a 12 h light/12 h dark environment, with free access to food and water. The mice were divided into normal NC group (NC), model group (Model), positive control-minoxidil group (Minoxidil), positive control-finasteride group (Finasteride), experimental group A and experimental group B. The proteins were stored in a −70° C. refrigerator and diluted with physiological saline when used. Experimental group A used rh-CRT-1, with a concentration of 0.21 mg/ml. Experimental group B used rh-CRT-2, with a concentration of 0.21 mg/ml. There were 6 mice in each group.
The main reagents used are as follows: 4% paraformaldehyde (Beijing Solarbio Technology Co., Ltd., China), isoflurane (Rayward, China), testosterone (Shanghai Standard Biotechnology Co., Ltd., China), paraffin sectioner (Thermo, USA), small animal anesthesia machine (Rayward, China), and inverted microscope (Olympus, Japan).
Modeling and drug administration: First, the androgenic alopecia model was established. One day before the modeling, the hair in the central part of the back of the experimental animal was removed with a skin preparation knife, and the prepared area was depilated with a depilatory cream. […]

Nc1cc(N2CCCCC2)nc(N)[n+]1[O-] [minoxidil, reference compound] was tested, and the “hair cuticles observed by scanning electron microscopy” value was “scaly and arranged neatly”.
